This is an account of results in PMC6801465.

Construct, isoform or probe ends are uncertain for at least one entry. No signal at the amounts used counts as a negative. At least one verdict was read from the data and is not stated in words by the source. A value given as a limit tells only on which side of the number the result lay.

For the data set, the target named is LDL-R (low-density lipoprotein receptor), negative control (UniProt P01130). The data set can be described thus: ELONA. As to conditions: Binding buffer: serum-free DMEM + 100 ug/mL tRNA, aptamers denatured 95 C 5 min, snap cooled on ice 10 min, ELONA 1 h (temperature not given), label: 5'-biotin (ELONA); for binding result: 100 nM aptamer.

Usually Kd stands for the equilibrium constant for the complex coming apart. With “GCCUUAGUAACGUGCUUUGAUGUCGAUUCGACAGGAGGC [CL-4]”, the Kd (2'-F on all C and U, A and G are RNA, synthetic backbone) is greater than 1 µM.
For the sequence “TGCTTTGATGTCGATTCGACAGGAGGC [CL-4RNV618]”, the binding result (none (all DNA), folded or branched DNA) was “no binding”.
Regarding “UGCUUUGAUGUCGAUUCGACAGGAGGC [CL-4RNV615]”, where the note is “all 2'-OMe, synthetic backbone”, the binding result was “no binding”.
As to “UGCUUUGAUGUCGAUUCGACAGGAGGC [CL-4RNV616]”, the Kd (2'-OMe on U, G, C, all A (positions 8, 14, 19, 21, 24) are DNA, 5'-FAM (cells), synthetic backbone) is greater than 1 µM.
With “UGCUUUGAUGUCGAUUCGACAGGAGGC [CL-4RNV617]”, the binding result (none (all RNA)) is recorded as “no binding”.
